# Experimental data taken from paper PMC7495420.
# The chains behind the UniProt entries cited, without tags or fusion partners.
# UniProt Q92766: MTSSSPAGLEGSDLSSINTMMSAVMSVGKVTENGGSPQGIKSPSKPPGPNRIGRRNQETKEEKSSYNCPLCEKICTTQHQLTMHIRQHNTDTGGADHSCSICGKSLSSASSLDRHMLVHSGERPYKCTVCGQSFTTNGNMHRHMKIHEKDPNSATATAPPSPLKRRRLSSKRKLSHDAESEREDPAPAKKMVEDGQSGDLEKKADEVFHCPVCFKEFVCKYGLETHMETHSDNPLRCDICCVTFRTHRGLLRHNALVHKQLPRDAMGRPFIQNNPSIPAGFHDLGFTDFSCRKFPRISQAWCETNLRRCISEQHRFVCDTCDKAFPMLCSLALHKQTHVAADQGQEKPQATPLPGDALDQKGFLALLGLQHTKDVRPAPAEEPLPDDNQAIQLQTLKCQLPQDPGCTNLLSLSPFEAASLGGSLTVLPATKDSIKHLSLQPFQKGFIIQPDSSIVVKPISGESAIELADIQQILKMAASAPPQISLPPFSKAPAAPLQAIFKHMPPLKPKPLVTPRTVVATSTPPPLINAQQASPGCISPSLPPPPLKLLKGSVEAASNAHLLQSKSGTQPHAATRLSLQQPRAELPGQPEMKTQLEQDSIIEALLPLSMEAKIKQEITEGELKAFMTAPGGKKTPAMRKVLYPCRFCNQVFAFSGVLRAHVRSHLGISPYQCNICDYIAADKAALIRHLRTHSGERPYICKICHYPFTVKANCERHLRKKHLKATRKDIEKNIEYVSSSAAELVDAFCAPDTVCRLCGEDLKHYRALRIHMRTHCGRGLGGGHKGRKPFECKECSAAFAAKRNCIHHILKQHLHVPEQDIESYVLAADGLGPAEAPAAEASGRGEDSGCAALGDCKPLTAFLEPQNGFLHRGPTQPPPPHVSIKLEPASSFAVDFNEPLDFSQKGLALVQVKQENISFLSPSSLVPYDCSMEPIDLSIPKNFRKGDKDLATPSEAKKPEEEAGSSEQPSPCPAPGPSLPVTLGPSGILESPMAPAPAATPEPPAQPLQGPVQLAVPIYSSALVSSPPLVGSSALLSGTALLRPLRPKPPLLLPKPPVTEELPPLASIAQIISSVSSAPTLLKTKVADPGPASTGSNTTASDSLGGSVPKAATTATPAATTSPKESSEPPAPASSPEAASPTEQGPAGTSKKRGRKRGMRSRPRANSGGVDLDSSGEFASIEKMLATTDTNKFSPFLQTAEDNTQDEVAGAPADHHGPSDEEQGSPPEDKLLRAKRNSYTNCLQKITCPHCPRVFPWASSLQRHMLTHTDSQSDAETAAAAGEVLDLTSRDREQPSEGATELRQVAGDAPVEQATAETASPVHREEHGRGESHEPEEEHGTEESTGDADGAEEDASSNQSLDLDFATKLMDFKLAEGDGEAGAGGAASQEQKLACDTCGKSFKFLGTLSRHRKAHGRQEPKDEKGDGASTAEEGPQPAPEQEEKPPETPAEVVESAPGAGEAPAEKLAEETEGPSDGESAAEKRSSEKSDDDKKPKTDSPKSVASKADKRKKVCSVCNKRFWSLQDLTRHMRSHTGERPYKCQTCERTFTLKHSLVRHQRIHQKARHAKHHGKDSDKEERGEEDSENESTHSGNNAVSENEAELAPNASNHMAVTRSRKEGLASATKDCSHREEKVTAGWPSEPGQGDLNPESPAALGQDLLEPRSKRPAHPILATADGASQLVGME
# UniProt Q13547: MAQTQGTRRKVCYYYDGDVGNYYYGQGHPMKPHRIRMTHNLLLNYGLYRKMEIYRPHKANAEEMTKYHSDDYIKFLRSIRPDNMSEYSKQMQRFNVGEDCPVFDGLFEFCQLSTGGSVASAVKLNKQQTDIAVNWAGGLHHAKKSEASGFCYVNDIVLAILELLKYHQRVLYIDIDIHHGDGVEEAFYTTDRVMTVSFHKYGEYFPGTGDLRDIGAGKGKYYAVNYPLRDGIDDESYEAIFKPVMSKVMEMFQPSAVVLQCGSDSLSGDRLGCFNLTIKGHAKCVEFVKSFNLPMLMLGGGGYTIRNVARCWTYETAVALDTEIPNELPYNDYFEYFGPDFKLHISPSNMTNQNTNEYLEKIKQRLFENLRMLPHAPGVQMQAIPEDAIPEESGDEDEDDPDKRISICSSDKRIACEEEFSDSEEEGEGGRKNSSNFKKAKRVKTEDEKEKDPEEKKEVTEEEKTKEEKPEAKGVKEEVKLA
# UniProt Q92769: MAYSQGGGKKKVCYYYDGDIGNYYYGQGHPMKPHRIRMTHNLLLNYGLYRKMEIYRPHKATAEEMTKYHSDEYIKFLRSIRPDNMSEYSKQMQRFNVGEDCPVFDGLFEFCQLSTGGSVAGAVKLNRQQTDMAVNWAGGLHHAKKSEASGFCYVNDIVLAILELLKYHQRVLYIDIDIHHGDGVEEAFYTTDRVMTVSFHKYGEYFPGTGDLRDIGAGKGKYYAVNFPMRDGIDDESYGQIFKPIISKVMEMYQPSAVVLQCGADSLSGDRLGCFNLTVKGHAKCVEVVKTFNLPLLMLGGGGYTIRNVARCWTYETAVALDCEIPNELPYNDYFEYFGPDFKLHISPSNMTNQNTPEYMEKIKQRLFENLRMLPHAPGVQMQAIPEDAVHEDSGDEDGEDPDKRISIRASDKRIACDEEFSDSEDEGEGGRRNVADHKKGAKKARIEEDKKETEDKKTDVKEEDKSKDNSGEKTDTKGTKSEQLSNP
# UniProt Q9UKL0: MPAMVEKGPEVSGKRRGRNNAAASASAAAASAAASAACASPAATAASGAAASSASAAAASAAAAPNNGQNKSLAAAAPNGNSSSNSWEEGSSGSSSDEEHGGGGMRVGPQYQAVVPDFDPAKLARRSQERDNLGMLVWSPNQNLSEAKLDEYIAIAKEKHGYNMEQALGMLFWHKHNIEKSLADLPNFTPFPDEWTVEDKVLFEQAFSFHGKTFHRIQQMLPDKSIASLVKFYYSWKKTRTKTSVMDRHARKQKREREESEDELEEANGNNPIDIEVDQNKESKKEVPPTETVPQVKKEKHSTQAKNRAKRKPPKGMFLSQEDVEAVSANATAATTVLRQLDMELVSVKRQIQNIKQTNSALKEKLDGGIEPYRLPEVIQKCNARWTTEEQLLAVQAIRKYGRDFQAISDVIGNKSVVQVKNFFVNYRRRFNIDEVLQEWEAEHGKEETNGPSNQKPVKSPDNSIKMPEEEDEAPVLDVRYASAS
# These are yes or no findings as the source states them, for the method shown. Binding seen in cells or lysates may run through a third protein. Some binding calls cover weakened binding; strength is not graded here.
# Experiments:
# [1] = biological target: VC-RREB1 (pCMV-HA-VC155-RREB1) (UniProt Q92766); assay: split reporter; BiFC in HEK293 cells: VC155-RREB1 with VN173-tagged partners, Venus fluorescence by confocal imaging
# [2] = biological target: endogenous RREB1 (all three isoforms) (human) (UniProt Q92766); assay: co-sedimentation; glycerol gradient (10–60%) ultracentrifugation of HEK293 extract at 135,000 g for 18 h at 4 °C; fractions analysed by western blot for endogenous proteins
substance,measurement,setting,value
VN-HDAC1 (pCMV-HA-VN173-HDAC1) (from UniProt Q13547 1-482),binding,[1],binds
endogenous HDAC1 (from UniProt Q13547 1-482),binding,[2],binds
endogenous HDAC2 (from UniProt Q92769 1-488),binding,[2],binds
endogenous RCOR1 (from UniProt Q9UKL0 1-485),binding,[2],binds
